Test results taken from US20260199510A1 (priority 2023, published 2026).

Assay: peptide synthesis
Conditions: conjugation step

In the case of “4—((S)-2-((tert-butoxycarbonyl)amino) propanamido)benzyl 2-((2S, 4R)-4-(2-((6S, 9R, 11R)-6-((S)-sec-butyl)-9-isopropyl-2, 3, 3, 8-tetramethyl-4, 7, 13-trioxo-12-oxa-2, 5, 8-triazatetradecan-11-yl) thiazole-4-carboxamido)-2-methyl-5-phenylpentanoyl) hydrazine-1-carboxylate”, the conjugation yield is reported as 29% yield.

Same assay, conditions: coupling step

First: benzyl (8S, 1 1S, 14S)-14-((tert-butoxycarbonyl)amino)-1-(((S)-4, 11-diethyl-8-fluoro-4-hydroxy-3, 14-dioxo-3, 4, 12, 14-tetrahydro-1H-pyrano[3′, 4′:6, 7]indolizino[1, 2-b]quinolin-9-yl)oxy)-11-isopropyl-8-methyl-4, 7, 10, 13-tetraoxo-3, 6, 9, 12-tetraazaheptadecan-17-oate
Second: (R)-5-(3-((S)-2-((S)-2-(((benzyloxy) carbonyl)amino)-3-methylbutanamido) propanamido)-4-hydroxyphenyl)-4-(2-((6S, 9R, 11R)-6-((S)-sec-butyl)-9-isopropyl-2, 3, 3, 8-tetramethyl-4, 7, 13-trioxo-12-oxa-2, 5, 8-triazatetradecan-11-yl) thiazole-4-carboxamido) pentanoic acid
The step yield of the first is lower: 92% yield for the first, 102% yield for the second.

“benzyl (5S, 8S, 11S, 14S)-5-(4-(4-(tert-butoxycarbonyl)benzamido)butyl)-8, 11, 14-trimethyl-3, 6, 9, 12-tetraoxo-1-phenyl-2-oxa-4, 7, 10, 13-tetraazapentadecan-15-oate” and “(R)-4-(2-((6S, 9R, 11R)-6-((S)-sec-butyl)-9-isopropyl-2, 3, 3, 8-tetramethyl-4, 7, 13-trioxo-12-oxa-2, 5, 8-triazatetradecan-11-yl) thiazole-4-carboxamido)-5-(4-hydroxy-3-((5S, 8S)-5-isopropyl-8-methyl-3, 6, 9-trioxo-1-phenyl-2-oxa-4, 7, 10-triazadodecan-12-amido)phenyl) pentanoic acid” are the same in step yield: 100% yield for the first, 100% yield for the second.

Substance “tert-butyl (S)-5-(((S)-1-(benzyloxy)-3-methyl-1-oxobutan-2-yl)amino)-4-(((benzyloxy) carbonyl)amino)-5-oxopentanoate” has a step yield of 68%.

Same assay, conditions: late stage modification step

First: N6-(4-(((22S, 26S)-22, 26-bis(tert-butoxycarbonyl)-31, 31-dimethyl-10, 19, 24, 29-tetraoxo-3, 6, 30-trioxa-9, 18, 23, 25-tetraazadotriacontyl) carbamoyl)benzoyl)-L-lysyl-L-alanyl-L-alanyl-L-alanine
Second: 4-(((4S, 7S, 10S, 13S)-13-(((benzyloxy) carbonyl)amino)-4, 7, 10-trimethyl-3, 6, 9, 12-tetraoxo-1-phenyl-2-oxa-5, 8, 11-triazaheptadecan-17-yl) carbamoyl)benzoic acid
The step yield of the first is lower: 94% yield for the first, 95% yield for the second.

Compared with “(8S, 11S, 14S)-14-((tert-butoxycarbonyl)amino)-1-(((S)-4, 11-diethyl-8-fluoro-4-hydroxy-3, 14-dioxo-3, 4, 12, 14-tetrahydro-1H-pyrano[3′, 4′:6, 7]indolizino[1, 2-b]quinolin-9-yl)oxy)-11-isopropyl-8-methyl-4, 7, 10, 13-tetraoxo-3, 6, 9, 12-tetraazaheptadecan-17-oic acid”, “(R)-5-(3-(2-((S)-2-((S)-2-amino-3-methylbutanamido) propanamido) acetamido)-4-hydroxyphenyl)-4-(2-((6S, 9R, 11R)-6-((S)-sec-butyl)-9-isopropyl-2, 3, 3, 8-tetramethyl-4, 7, 13-trioxo-12-oxa-2, 5, 8-triazatetradecan-11-yl) thiazole-4-carboxamido) pentanoic acid” is lower in step yield: 104% yield for the first, 38% yield for the second.

“2-((2S, 5R, 8S, 11S)-8-(4-aminobutyl)-5-benzyl-11-(3-guanidinopropyl)-3, 6, 9, 12, 15-pentaoxo-1, 4, 7, 10, 13-pentaazacyclopentadecan-2-yl)acetic acid” showed a step yield of 90%.
